Laboratory results reported in PubChem BioAssay AID1671190 (National Center for Advancing Translational Sciences (NCATS), 2021).
Out of some 580,000 compounds screened, about 6,100 (1.1%) were called active. This list was built around the results that the source calls inconclusive (neither active nor inactive); the mix of calls is not that of the screen. Calls follow the shape of the dose curve; as a rule, active = well fitted inhibition curve with a large enough effect; inconclusive = small, poorly fitted or top-dose-only effect, or another doubt; inactive = no such curve, though single readings can be large or run the other way. A potency beside an inconclusive call is a rough fit, not a confirmed value.

The chains behind the UniProt entries cited, without tags or fusion partners. Where a name states a change or a piece, a line headed by the entry shows the natural chain unless it says otherwise.
UniProt P18054: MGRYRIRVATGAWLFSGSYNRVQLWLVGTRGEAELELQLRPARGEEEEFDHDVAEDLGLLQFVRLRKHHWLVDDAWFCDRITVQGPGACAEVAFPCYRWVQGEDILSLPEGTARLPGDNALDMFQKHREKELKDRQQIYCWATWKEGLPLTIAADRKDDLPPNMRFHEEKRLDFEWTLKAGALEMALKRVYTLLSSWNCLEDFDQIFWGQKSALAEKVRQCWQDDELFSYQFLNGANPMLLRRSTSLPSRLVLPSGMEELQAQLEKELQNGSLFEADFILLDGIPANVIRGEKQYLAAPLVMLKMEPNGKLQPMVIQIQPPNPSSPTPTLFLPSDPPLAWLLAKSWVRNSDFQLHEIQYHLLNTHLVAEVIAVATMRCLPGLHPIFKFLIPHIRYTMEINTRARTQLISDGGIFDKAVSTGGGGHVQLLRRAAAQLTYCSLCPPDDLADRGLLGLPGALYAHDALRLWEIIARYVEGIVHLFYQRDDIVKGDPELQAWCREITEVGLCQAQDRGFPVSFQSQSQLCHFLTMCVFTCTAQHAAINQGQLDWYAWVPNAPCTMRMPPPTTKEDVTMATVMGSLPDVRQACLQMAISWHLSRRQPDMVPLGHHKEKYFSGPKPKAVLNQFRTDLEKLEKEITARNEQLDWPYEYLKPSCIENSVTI

molecular target: Polyunsaturated fatty acid lipoxygenase ALOX12 (Homo sapiens) (UniProt P18054); assay: Primary qHTS assay for inhibitors of human arachidonate 12S-lipoxygenase (ALOX12): Round 2; settings: purified 12hLO, xylenol orange hydroperoxide absorbance; series mostly up to 108 µM
Method in brief: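 Purified human 12hLO (150 nM final) in 25 mM Hepes, 0.01% Triton X-100, pH 7.0 was preincubated 15 min at room temperature with compound. Then 40 uM arachidonic acid was added, 30 min. Hydroperoxide was read by Fe-XO absorbance ratio 573/405 nm.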
Potency is read from the fitted curve at half-maximal effect.

| Compound | Potency |
| --- | --- |
| CC(C)C[C@H](NC(=O)N1CC(=O)Nc2ccccc21)C(=O)N[C@@H](Cc1c[nH]c2ccccc12)C(=O)O | inconclusive: 112 µM [inhibitor, single point] |
| CC(C)c1nc(CCNC(=O)c2ccc(C3CCNC3)cc2)cs1 (stereo not drawn) | inconclusive: 20 µM [inhibitor, full curve, poor fit] |
| COc1cccc(-c2c(C#N)c(N)nc3c2c(C)nn3-c2ccccc2)c1O | inconclusive: 39.8 µM [inhibitor, partial curve, poor fit] |
| CC(CCc1ccccc1)NC(=S)NC1CC2CCC1C2 (stereo not drawn) | inconclusive: 44.7 µM [inhibitor, partial curve, poor fit] |
| Cc1cccc(C)c1NC(=O)C(c1cccs1)N(Cc1ccco1)C(=O)Cn1nnc2ccccc21 (stereo not drawn) | inactive |
| O=C(CSc1ncc(-c2ccccc2)[nH]1)Nc1ccccc1 | inconclusive: 158 µM [inhibitor, single point] |
| O=C(COC(=O)c1ccccc1Br)Nc1ccc(F)cc1 | inactive |
| CCN1C(=O)c2ccccc2S(=O)(=O)c2ccc(C(=O)NCc3ccccc3)cc21 | inconclusive: 7.94 µM [inhibitor, full curve, poor fit] |
| CC1CCN(S(=O)(=O)c2ccc(C(=O)Nc3nnc(-c4ccco4)o3)cc2)CC1 | inactive |
| CCc1ccc(Nc2nnc(SCc3cc(=O)n4ccsc4n3)s2)cc1 | inconclusive: 39.8 µM [inhibitor, partial curve, poor fit] |
| N#Cc1cccc(-c2csc(C(O)(c3ccccc3)C(F)(F)F)n2)c1 (stereo not drawn) | inconclusive: 70.8 µM [inhibitor, single point] |
| CC(C)CCNc1nc(C(=O)OCC(=O)NC(=O)NCC(C)C)cs1 | inactive |
| CC(C)(C)C(=O)N1CCC2(CC1)C(=O)N(CC(=O)Nc1cccc(Cl)c1)CN2c1ccccc1 | inconclusive: 15.8 µM [inhibitor, full curve] |
| O=[N+]([O-])c1ccc(O)c(Nc2c([N+](=O)[O-])ccc3nonc23)c1 | inconclusive: 5.62 µM [inhibitor, partial curve, poor fit] |
| c1coc(-c2cnc3ccccc3n2)c1 | active: 39.8 µM |
| CCN(CC)CCNC(=O)c1ccc(NC(=O)c2cn(-c3ccc(F)cc3)nc2-c2cccc(OC)c2)cc1 | inconclusive: 50.1 µM [inhibitor, partial curve, poor fit] |
| NC(=O)c1c(N)sc2c1CCCC2 | inactive |
| Clc1ccc(-c2csc(NC3CC3)n2)cc1Cl | active: 10 µM |
| O=C(Cn1cccc1-c1nc(-c2ccccc2)no1)Nc1cc(F)ccc1Cl | inactive |
| Cc1cc(C)cc(NC(=S)Nc2ccc3cn[nH]c3c2)c1 | inconclusive: 39.8 µM [inhibitor, partial curve] |
| CC(=O)c1cccc(-c2ccnc3c2CC(C(=O)NCc2ccncc2)O3)c1 (stereo not drawn) | inactive |
| COc1ccc(C(C)=O)cc1CC(=O)Nc1cc(S(C)(=O)=O)ccc1C | inconclusive: 141 µM [inhibitor, partial curve, poor fit] |

Taken from above, two compounds:

| Compound | Potency |
| --- | --- |
| CC1CCN(S(=O)(=O)c2ccc(C(=O)Nc3nnc(-c4ccco4)o3)cc2)CC1 | inactive |
| CCc1ccc(Nc2nnc(SCc3cc(=O)n4ccsc4n3)s2)cc1 | inconclusive: 39.8 µM [inhibitor, partial curve, poor fit] |

The list goes on.

| Compound | Potency |
| --- | --- |
| CCOC(=O)c1ccc(N2C(=O)c3n[nH]c(-c4ccco4)c3C2c2ccc(C(=O)OC)cc2)cc1 (stereo not drawn) | inconclusive: 25.1 µM [inhibitor, full curve] |
| COc1ccc(Nc2ccccc2)cc1 | active: 35.5 µM |
| S=c1[nH]nc(-c2ccncc2)n1/N=C/C=C/c1ccccc1 | inconclusive: 35.5 µM [inhibitor, partial curve, poor fit] |
| CCn1c(=O)c2ccnn2c2ccc(C(=O)Nc3ccc(C)c(F)c3)cc21 | inconclusive: 14.1 µM [inhibitor, full curve, poor fit] |
| Cc1ccc(NC(=O)NCCN2CCCCC2)cc1 | inconclusive: 39.8 µM [inhibitor, partial curve, poor fit] |
| CCCc1[nH]n(-c2ccc([N+](=O)[O-])cc2)c(=O)c1C(C)=NCc1ccncc1 | inconclusive: 44.7 µM [inhibitor, partial curve, poor fit] |
| CN(CC(=O)Nc1ccccc1C(F)(F)F)C(=O)COc1ccc2oc3c(c2c1)CCCC3 | inactive |
| CCN(CC(O)CON=C1c2ccccc2-c2ccccc21)S(=O)(=O)c1ccc(C)cc1 (stereo not drawn) | inactive |
| O=C(NNc1cc(Cl)cc(Cl)c1)c1cccs1 | inconclusive: 100 µM [inhibitor, single point] |
| CC(=O)c1ccc(NC(=O)C(C)OC(=O)c2nn(-c3ccccc3)c(=O)c3ccccc23)cc1 (stereo not drawn) | inconclusive: 100 µM [inhibitor, single point] |
| Cc1ccc(NC(=O)Cc2nnc(SCC(=O)NC3=NCCS3)n2C)cc1 | inconclusive: 50.1 µM [inhibitor, partial curve, poor fit] |
| O=C(c1ccco1)n1c(=S)nc2ccccn21 | inconclusive: 50.1 µM [inhibitor, partial curve, poor fit] |
| CCn1ncc(N(C)N)c(Cl)c1=O | inconclusive: 50.1 µM [inhibitor, partial curve, poor fit] |
| COc1ccc(N(CC(=O)Nc2ccc3c(c2)OCO3)S(=O)(=O)c2ccc(F)cc2)cc1 | inactive |
| Cc1oc2cc(OCC(=O)N(C)C3CCS(=O)(=O)C3)ccc2c(=O)c1Oc1ccccc1 (stereo not drawn) | inconclusive: 35.5 µM [inhibitor, partial curve] |
| CCCCOc1nc(N2CCOCC2)nc(C)c1[N+](=O)[O-] | inconclusive: 112 µM [inhibitor, single point] |
| O=C1CO[C@H]2CN(Cc3ccncc3)C[C@H]2N1Cc1ccc(F)cc1 | inconclusive: 25.1 µM [inhibitor, full curve] |
| CC1(C(=O)NS(=O)(=O)c2ccc(Cl)cc2)CCN1C(=O)C1(c2ccc(Cl)cc2)CCC1 (stereo not drawn) | inactive |
| Cc1[nH][nH]c(=O)c1C(c1ccccc1OCc1ccccc1Cl)c1c(C)[nH][nH]c1=O | inconclusive: 44.7 µM [inhibitor, partial curve, poor fit] |
| COC(=O)c1sccc1NC(=S)Nc1ccccc1 | inactive |
| O=C1CCCCC1Sc1nc2cc(Cl)ccc2s1 (stereo not drawn) | inconclusive: 39.8 µM [inhibitor, partial curve, poor fit] |
